# Laboratory results as given in PMC6503738.
# Results are given in words; binding and its absence hold for the method and conditions named. In cells and extracts the contact can be indirect. Some results given as binding are weak or reduced against the parent protein; the word gives no strength. Where a sequence is shown, tags or fusion partners need not be part of it.
# T1: HA-tagged PI31 (UniProt Q92530)
# T1 sequence: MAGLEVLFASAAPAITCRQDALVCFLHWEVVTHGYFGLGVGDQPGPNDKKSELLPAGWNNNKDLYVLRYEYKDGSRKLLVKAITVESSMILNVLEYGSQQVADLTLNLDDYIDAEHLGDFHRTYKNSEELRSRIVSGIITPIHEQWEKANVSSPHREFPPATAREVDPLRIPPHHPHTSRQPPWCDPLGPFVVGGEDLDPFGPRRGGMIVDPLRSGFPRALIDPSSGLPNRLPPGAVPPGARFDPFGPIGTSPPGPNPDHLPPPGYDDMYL
# T2: FLAG-tagged TBK1 (UniProt Q9UHD2)
# T2 sequence: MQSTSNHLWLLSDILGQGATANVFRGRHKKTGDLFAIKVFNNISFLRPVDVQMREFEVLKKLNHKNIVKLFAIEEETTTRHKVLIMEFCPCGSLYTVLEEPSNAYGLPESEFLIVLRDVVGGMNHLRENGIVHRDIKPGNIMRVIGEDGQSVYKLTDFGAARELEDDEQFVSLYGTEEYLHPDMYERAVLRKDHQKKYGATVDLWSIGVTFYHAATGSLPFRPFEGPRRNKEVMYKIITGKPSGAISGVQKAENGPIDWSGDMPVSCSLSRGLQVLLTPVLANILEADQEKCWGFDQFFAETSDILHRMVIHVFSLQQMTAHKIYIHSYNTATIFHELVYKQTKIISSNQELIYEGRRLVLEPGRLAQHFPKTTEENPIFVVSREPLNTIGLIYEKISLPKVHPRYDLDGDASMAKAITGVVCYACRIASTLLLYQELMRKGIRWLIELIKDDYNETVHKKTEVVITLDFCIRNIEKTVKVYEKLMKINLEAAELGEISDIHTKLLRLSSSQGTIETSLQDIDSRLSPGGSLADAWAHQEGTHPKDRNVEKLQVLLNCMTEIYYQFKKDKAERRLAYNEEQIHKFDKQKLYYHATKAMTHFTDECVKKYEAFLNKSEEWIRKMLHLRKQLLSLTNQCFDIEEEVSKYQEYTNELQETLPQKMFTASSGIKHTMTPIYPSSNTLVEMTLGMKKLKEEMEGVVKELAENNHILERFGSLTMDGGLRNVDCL
# B1: FLAG-tagged TBK1 (enzyme, UniProt Q9UHD2 1-729)
# chain: MQSTSNHLWLLSDILGQGATANVFRGRHKKTGDLFAIKVFNNISFLRPVDVQMREFEVLKKLNHKNIVKLFAIEEETTTRHKVLIMEFCPCGSLYTVLEEPSNAYGLPESEFLIVLRDVVGGMNHLRENGIVHRDIKPGNIMRVIGEDGQSVYKLTDFGAARELEDDEQFVSLYGTEEYLHPDMYERAVLRKDHQKKYGATVDLWSIGVTFYHAATGSLPFRPFEGPRRNKEVMYKIITGKPSGAISGVQKAENGPIDWSGDMPVSCSLSRGLQVLLTPVLANILEADQEKCWGFDQFFAETSDILHRMVIHVFSLQQMTAHKIYIHSYNTATIFHELVYKQTKIISSNQELIYEGRRLVLEPGRLAQHFPKTTEENPIFVVSREPLNTIGLIYEKISLPKVHPRYDLDGDASMAKAITGVVCYACRIASTLLLYQELMRKGIRWLIELIKDDYNETVHKKTEVVITLDFCIRNIEKTVKVYEKLMKINLEAAELGEISDIHTKLLRLSSSQGTIETSLQDIDSRLSPGGSLADAWAHQEGTHPKDRNVEKLQVLLNCMTEIYYQFKKDKAERRLAYNEEQIHKFDKQKLYYHATKAMTHFTDECVKKYEAFLNKSEEWIRKMLHLRKQLLSLTNQCFDIEEEVSKYQEYTNELQETLPQKMFTASSGIKHTMTPIYPSSNTLVEMTLGMKKLKEEMEGVVKELAENNHILERFGSLTMDGGLRNVDCL
# B2: GFP-PI31 (protein, UniProt Q92530 1-271)
# chain: MAGLEVLFASAAPAITCRQDALVCFLHWEVVTHGYFGLGVGDQPGPNDKKSELLPAGWNNNKDLYVLRYEYKDGSRKLLVKAITVESSMILNVLEYGSQQVADLTLNLDDYIDAEHLGDFHRTYKNSEELRSRIVSGIITPIHEQWEKANVSSPHREFPPATAREVDPLRIPPHHPHTSRQPPWCDPLGPFVVGGEDLDPFGPRRGGMIVDPLRSGFPRALIDPSSGLPNRLPPGAVPPGARFDPFGPIGTSPPGPNPDHLPPPGYDDMYL
# Tests used:
# HA-tagged PI31 = target: T1, HA-tagged PI31; experiment: co-IP; HA-PI31 and FLAG-TBK1 co-expressed in HEK293 cells expressing human NOD2, with or without MDP for 30 min; lysate (1% TritonX-100, 150 mM NaCl, Tris pH 8.0) immunoprecipitated with anti-HA, blotted with anti-Flag
# FLAG-tagged TBK1 = target: T2, FLAG-tagged TBK1; experiment: co-IP; FLAG-TBK1 and GFP-PI31 expressed in hNOD2 HEK293 cells, with or without MDP; lysate immunoprecipitated with anti-Flag, blotted with anti-GFP
binder,measurement,setting,value
B1,binding,HA-tagged PI31,binds
B2,binding,FLAG-tagged TBK1,binds
